Results as given in paper PMC6010621.
No constants are given. Whether binding was seen depends on the method and setting. A result given as binding can be weak or reduced; the word gives no strength. For some assays here: In cells and extracts the contact can be indirect.

The chains behind the UniProt entries cited, without tags or fusion partners. Where a name states a change or a piece, a line headed by the entry shows the natural chain unless it says otherwise.
UniProt Q57XQ4: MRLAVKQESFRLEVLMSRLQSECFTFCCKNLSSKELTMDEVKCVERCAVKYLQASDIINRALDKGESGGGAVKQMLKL
UniProt Q57ZF1: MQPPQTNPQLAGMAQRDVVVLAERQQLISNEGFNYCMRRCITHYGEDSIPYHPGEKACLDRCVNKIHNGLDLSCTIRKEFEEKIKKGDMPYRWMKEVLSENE
UniProt Q388C4: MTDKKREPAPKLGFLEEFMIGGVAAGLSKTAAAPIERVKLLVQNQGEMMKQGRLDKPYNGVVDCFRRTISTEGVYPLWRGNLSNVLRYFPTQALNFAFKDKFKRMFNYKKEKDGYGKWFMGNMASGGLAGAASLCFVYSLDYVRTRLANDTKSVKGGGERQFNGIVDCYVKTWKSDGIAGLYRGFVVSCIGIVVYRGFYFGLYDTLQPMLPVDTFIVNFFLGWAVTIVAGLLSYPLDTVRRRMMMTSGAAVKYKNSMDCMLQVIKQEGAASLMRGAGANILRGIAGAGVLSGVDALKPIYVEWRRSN
UniProt Q382K7: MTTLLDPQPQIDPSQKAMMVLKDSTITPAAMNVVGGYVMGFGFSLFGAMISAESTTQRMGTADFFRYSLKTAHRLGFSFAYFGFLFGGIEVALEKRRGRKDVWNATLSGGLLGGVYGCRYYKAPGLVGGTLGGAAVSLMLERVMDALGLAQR
UniProt Q586M2: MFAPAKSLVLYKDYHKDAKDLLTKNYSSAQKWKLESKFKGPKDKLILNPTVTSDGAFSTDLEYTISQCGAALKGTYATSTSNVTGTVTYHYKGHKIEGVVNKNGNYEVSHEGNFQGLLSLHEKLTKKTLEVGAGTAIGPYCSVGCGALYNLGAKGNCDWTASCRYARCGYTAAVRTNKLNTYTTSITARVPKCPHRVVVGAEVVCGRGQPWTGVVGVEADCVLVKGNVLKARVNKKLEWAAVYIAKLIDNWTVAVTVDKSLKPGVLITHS

Columns and labels:
[1] = target: TbTim9-Myc (Trypanosoma brucei) (UniProt Q57XQ4); test: co-IP; digitonin-solubilized (1%) mitochondrial extract, anti-myc agarose beads, 12 h at 4°C, 50 mM Tris pH 7.2, 50 mM NaCl, 10% glycerol; washes with 0.1% digitonin; bound proteins detected by immunoblot
[2] = target: TbTim10-Myc (Trypanosoma brucei) (UniProt Q57ZF1); test: as above
[3] = target: TbTim10 Gal4 fusion (TbTim10-AD / TbTim10-BD) (Trypanosoma brucei) (UniProt Q57ZF1); test: two-hybrid; Gal4 AD (pGADT7) and BD (pGBKT7) fusions cotransformed into S. cerevisiae Y2H Gold; growth on SD -leu/-trp/-his with 0 to 5.0 mM 3-amino-1,2,4-triazole, 30°C, 3 to 5 days

Substance | binding [1] | binding [2] | binding [3]
T. brucei ADP/ATP carrier (TbAAC) (from UniProt Q388C4) | no binding |  | 
T. brucei Tim17 (TbTim17) (from UniProt Q382K7) | binds | binds | 
TbTim9 Gal4 fusion (TbTim9-AD / TbTim9-BD) (from UniProt Q57XQ4) |  |  | binds weakly
voltage-dependent anion channel protein (VDAC) (from UniProt Q586M2) | no binding |  | 
